The nature of this data set: Composition of amniotic fluid cell-derived ECM by mass spectrometry (total spectra count). The note with it: for Total Spectra Count Matrix A: protein component found by mass spectrometry in amniotic fluid cell-derived ECM Matrix A (Example 1); for Total Spectra Count Matrix B: protein component found by mass spectrometry in amniotic fluid cell-derived ECM Matrix B (Example 1); for Total Spectra Count Matrix C: protein component found by mass spectrometry in amniotic fluid cell-derived ECM Matrix C (Example 1); for Total Spectra Count Matrix D: protein component found by mass spectrometry in amniotic fluid cell-derived ECM Matrix D (Example 1).

B1: Serpin H1 (protein, UniProt P50454 19-418, looked up)
Serpin H1: AEVKKPAAAAAPGTAEKLSPKAATLAERSAGLAFSLYQAMAKDQAVENILVSPVVVASSLGLVSLGGKATTASQAKAVLSAEQLRDEEVHAGLGELLRSLSNSTARNVTWKLGSRLYGPSSVSFADDFVRSSKQHYNCEHSKINFRDKRSALQSINEWAAQTTDGKLPEVTKDVERTDGALLVNAMFFKPHWDEKFHHKMVDNRGFMVTRSYTVGVMMMHRTGLYNYYDDEKEKLQIVEMPLAHKLSSLIILMPHHVEPLERLEKLLTKEQLKIWMGKMQKKAVAISLPKGVVEVTHDLQKHLAGLGLTEAIDKNKADLSRMSGKKDLYLASVFHATAFELDTDGNPFDQDIYGREELRSPKLFYADHPFIFLVRDTQSGSLLFIGRLVRPKGDKMRDEL
Consider B1, for which the “Total Spectra Count Matrix A” value is 64, the “Total Spectra Count Matrix B” value amounted to 731, the “Total Spectra Count Matrix C” value stood at 128 and the “Total Spectra Count Matrix D” value was determined as 97.

B2: Alpha-actinin-1 (protein, UniProt P12814 1-892, looked up)
Alpha-actinin-1: MDHYDSQQTNDYMQPEEDWDRDLLLDPAWEKQQRKTFTAWCNSHLRKAGTQIENIEEDFRDGLKLMLLLEVISGERLAKPERGKMRVHKISNVNKALDFIASKGVKLVSIGAEEIVDGNVKMTLGMIWTIILRFAIQDISVEETSAKEGLLLWCQRKTAPYKNVNIQNFHISWKDGLGFCALIHRHRPELIDYGKLRKDDPLTNLNTAFDVAEKYLDIPKMLDAEDIVGTARPDEKAIMTYVSSFYHAFSGAQKAETAANRICKVLAVNQENEQLMEDYEKLASDLLEWIRRTIPWLENRVPENTMHAMQQKLEDFRDYRRLHKPPKVQEKCQLEINFNTLQTKLRLSNRPAFMPSEGRMVSDINNAWGCLEQVEKGYEEWLLNEIRRLERLDHLAEKFRQKASIHEAWTDGKEAMLRQKDYETATLSEIKALLKKHEAFESDLAAHQDRVEQIAAIAQELNELDYYDSPSVNARCQKICDQWDNLGALTQKRREALERTEKLLETIDQLYLEYAKRAAPFNNWMEGAMEDLQDTFIVHTIEEIQGLTTAHEQFKATLPDADKERLAILGIHNEVSKIVQTYHVNMAGTNPYTTITPQEINGKWDHVRQLVPRRDQALTEEHARQQHNERLRKQFGAQANVIGPWIQTKMEEIGRISIEMHGTLEDQLSHLRQYEKSIVNYKPKIDQLEGDHQLIQEALIFDNKHTNYTMEHIRVGWEQLLTTIARTINEVENQILTRDAKGISQEQMNEFRASFNHFDRDHSGTLGPEEFKACLISLGYDIGNDPQGEAEFARIMSIVDPNRLGVVTFQAFIDFMSRETADTDTADQVMASFKILAGDKNYITMDELRRELPPDQAEYCIARMAPYTGPDSVPGALDYMSFSTALYGESDL
For B2, the “Total Spectra Count Matrix A” value came out at 62, the “Total Spectra Count Matrix B” value was found to be 217, the “Total Spectra Count Matrix C” value was found to be 19 and the “Total Spectra Count Matrix D” value was found to be 77.
